# From the supplement of paper PMC10849652
# The chains behind the UniProt entries cited, without tags or fusion partners. Where a name states a change or a piece, a line headed by the entry shows the natural chain unless it says otherwise.
# UniProt P45877: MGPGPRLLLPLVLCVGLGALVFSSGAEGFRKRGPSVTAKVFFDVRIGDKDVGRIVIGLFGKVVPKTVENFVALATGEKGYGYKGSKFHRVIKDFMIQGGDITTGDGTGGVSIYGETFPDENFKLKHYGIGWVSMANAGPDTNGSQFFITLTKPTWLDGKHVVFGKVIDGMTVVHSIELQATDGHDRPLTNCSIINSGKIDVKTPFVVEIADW
# UniProt Q9NVU0: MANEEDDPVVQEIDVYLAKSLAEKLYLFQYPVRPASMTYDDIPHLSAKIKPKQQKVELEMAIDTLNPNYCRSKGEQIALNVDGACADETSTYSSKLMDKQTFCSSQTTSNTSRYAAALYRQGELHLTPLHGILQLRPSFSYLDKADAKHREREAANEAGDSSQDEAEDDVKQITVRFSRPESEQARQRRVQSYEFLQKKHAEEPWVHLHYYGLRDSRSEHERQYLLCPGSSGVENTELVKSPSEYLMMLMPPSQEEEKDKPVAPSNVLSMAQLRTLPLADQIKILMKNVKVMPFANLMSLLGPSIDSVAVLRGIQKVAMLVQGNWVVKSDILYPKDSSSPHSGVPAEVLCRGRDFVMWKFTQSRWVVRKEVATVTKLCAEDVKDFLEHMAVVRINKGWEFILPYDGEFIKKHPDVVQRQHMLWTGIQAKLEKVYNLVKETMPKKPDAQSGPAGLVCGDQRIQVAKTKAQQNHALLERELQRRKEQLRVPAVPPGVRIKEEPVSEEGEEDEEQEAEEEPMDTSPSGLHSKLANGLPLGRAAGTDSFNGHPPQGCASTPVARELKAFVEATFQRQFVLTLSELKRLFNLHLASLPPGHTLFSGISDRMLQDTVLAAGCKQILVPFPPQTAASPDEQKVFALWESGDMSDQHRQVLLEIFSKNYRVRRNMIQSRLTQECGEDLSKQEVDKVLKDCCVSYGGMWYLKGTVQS
# UniProt Q9NRF9: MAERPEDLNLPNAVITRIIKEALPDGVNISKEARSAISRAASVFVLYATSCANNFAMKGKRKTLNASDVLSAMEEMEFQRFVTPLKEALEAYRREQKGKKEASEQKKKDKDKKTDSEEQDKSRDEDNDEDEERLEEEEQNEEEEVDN
# UniProt Q96CD2: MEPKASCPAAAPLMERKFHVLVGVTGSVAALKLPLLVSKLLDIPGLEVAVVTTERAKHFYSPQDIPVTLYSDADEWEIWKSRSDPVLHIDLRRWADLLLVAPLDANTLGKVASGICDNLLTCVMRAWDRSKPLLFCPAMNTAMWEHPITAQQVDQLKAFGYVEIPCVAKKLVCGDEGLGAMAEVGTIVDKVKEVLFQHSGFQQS
# UniProt Q8NAT1: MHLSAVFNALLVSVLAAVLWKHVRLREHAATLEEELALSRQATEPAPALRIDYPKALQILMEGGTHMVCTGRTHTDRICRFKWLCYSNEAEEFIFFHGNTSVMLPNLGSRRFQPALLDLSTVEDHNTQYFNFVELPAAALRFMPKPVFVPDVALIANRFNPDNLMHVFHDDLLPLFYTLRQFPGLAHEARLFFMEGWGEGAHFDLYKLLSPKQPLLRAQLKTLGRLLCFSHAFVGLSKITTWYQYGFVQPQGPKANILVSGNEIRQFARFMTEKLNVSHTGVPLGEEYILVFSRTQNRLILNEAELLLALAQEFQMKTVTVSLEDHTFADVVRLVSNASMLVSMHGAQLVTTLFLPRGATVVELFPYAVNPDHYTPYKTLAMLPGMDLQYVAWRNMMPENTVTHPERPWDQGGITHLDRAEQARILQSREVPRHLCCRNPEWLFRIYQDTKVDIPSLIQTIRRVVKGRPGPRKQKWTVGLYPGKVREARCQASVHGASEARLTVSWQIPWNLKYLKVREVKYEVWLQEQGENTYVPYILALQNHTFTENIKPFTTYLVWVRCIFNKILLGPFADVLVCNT
# UniProt Q9HCU8: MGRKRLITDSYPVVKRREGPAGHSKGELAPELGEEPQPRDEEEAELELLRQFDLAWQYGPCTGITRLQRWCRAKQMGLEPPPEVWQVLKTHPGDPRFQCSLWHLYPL
# UniProt Q96HA1, whole entry, looked up: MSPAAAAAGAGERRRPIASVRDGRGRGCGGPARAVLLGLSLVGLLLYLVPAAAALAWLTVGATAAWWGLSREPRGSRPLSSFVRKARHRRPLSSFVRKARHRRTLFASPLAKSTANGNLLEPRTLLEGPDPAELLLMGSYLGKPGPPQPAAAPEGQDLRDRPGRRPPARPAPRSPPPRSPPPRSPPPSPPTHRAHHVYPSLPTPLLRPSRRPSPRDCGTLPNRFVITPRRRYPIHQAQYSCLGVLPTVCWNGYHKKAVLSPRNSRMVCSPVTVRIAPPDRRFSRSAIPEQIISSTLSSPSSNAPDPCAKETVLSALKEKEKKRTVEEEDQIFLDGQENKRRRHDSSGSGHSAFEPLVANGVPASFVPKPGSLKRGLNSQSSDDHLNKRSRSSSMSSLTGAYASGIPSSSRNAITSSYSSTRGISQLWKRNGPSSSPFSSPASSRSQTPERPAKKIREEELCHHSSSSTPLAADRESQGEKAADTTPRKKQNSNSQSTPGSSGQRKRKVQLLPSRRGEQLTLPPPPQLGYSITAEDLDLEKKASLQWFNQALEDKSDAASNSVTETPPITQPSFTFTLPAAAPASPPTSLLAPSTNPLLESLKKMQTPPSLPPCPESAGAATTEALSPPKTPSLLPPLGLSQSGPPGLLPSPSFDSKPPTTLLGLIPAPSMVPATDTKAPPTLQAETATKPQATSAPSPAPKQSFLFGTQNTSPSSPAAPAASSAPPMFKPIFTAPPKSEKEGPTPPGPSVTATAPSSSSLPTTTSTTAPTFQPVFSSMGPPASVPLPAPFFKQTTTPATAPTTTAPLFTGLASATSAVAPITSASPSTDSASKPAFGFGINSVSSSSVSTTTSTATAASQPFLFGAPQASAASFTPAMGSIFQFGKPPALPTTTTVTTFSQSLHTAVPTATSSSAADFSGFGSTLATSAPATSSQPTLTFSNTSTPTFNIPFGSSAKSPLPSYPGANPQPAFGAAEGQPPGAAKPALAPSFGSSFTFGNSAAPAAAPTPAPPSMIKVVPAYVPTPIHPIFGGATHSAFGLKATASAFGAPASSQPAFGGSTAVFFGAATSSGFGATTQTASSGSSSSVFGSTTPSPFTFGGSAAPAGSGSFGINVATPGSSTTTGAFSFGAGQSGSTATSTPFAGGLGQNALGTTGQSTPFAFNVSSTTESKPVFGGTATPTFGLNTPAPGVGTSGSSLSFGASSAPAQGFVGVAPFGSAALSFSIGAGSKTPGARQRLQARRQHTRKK
# UniProt Q9Y244: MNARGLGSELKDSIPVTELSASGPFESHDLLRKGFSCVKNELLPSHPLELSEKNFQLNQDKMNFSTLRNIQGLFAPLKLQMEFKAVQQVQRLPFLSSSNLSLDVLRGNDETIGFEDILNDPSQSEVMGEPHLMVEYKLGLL
# UniProt Q9H9Y6, whole entry, looked up: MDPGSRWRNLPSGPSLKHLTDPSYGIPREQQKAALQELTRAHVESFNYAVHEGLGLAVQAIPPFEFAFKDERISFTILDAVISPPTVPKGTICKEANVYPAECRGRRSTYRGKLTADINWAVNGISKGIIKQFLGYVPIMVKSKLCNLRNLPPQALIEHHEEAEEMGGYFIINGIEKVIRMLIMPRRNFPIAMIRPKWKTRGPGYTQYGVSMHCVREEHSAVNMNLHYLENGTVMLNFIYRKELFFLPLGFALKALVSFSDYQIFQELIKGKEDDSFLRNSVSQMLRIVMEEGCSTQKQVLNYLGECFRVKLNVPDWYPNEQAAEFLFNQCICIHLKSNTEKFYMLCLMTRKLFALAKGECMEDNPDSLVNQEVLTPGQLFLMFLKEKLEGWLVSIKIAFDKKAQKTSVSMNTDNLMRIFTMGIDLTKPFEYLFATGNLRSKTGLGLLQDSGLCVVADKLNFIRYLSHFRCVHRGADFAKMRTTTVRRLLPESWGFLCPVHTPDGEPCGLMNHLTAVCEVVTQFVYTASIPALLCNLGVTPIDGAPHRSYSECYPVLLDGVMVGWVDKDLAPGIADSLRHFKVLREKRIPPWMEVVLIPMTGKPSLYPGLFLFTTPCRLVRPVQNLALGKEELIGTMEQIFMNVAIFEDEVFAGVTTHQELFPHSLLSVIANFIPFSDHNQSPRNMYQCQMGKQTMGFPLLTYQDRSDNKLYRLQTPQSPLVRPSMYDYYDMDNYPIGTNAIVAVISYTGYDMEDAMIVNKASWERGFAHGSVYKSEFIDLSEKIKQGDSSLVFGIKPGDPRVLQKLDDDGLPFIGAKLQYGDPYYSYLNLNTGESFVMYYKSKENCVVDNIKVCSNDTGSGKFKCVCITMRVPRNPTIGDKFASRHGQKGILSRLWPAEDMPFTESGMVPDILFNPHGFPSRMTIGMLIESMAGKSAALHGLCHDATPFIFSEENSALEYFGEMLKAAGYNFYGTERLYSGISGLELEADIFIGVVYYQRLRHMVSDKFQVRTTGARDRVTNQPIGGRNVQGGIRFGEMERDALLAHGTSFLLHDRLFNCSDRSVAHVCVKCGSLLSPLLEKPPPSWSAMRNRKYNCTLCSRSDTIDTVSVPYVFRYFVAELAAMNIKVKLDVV
# UniProt P0DPB5: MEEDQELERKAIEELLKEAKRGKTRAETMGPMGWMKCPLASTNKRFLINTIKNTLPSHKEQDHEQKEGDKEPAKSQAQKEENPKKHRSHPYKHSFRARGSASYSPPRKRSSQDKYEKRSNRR
# UniProt P51805: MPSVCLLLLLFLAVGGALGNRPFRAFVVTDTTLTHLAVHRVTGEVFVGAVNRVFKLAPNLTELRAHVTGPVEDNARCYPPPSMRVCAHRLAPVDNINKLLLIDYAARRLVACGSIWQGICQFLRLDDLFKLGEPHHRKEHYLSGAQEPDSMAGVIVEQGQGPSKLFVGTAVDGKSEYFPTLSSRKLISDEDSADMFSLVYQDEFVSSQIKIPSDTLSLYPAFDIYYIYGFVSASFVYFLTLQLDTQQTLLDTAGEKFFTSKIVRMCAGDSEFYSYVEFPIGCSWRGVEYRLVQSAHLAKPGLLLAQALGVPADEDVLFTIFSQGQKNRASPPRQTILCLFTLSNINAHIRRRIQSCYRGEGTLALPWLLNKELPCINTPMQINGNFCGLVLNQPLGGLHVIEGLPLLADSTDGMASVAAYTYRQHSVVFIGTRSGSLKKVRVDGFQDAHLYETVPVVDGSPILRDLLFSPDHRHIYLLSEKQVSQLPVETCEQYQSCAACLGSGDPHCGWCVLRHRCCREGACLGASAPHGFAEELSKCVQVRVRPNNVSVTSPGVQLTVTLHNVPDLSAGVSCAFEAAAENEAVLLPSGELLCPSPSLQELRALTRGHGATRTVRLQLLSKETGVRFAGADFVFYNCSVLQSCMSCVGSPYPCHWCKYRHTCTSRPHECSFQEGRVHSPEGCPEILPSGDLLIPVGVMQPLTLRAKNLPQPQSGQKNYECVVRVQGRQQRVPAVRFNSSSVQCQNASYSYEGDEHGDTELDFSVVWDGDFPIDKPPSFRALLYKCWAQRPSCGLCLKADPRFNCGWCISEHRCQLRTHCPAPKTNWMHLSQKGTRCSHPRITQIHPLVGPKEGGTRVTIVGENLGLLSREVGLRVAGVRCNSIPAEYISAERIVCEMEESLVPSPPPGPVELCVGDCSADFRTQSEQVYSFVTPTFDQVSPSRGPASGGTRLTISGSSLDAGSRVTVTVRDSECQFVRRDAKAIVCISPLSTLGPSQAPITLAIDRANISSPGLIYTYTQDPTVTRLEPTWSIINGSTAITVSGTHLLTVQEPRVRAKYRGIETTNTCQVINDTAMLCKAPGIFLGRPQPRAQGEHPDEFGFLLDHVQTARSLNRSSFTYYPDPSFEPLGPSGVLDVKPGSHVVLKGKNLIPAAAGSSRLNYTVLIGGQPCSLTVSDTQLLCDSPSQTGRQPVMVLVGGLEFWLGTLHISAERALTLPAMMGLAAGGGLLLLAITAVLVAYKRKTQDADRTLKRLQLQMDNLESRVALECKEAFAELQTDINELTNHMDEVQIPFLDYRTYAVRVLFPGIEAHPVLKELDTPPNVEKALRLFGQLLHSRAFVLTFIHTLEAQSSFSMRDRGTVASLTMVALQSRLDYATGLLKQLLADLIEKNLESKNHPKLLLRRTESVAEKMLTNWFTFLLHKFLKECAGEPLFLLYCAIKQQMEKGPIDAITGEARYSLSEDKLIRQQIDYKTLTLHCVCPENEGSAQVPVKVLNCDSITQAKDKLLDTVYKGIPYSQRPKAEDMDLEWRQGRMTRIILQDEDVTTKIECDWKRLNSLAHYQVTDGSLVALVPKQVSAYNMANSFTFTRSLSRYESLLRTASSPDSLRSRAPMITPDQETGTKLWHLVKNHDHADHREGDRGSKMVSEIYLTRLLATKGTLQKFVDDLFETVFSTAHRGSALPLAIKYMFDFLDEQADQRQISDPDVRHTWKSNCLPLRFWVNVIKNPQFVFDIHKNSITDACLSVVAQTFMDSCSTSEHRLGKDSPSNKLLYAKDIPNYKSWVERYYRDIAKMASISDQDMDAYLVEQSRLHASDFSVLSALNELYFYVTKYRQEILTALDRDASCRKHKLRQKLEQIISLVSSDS
# This is one part of the list.
# Experiments:
# Test in all cases: log2 fold change, soluble protein after heating vs DMSO (PISA); higher = thermal stabilisation; K562 cells, 10 uM, 30 min; active = over 0.2 and 3.5 SD of the protein, either way, in both replicates (recomputed)
# [1] = compound: COC1=CC=C(C=C1)CN2C=CC3=C2C=C(C=C3)C(=O)NO
# Outline: (§1)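 Quantification of soluble protein used TMTpro 16plex LC-MS/MS, with channel sums equalised. Samples were the supernatant after 21,000xg for 90 min of pooled aliquots from K562 cells (2×10^6 cells/mL) treated with 10 μM compound for 30 min, heated for 3 min over 48°C-58°C, and extracted in PBS with 0.5% NP-40 at 4°C. Values, from duplicates, describe thermal stability against control samples on a log2 fold-change scale.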
# filanesib = compound: CON(C)C(=O)N1N=C(c2cc(F)ccc2F)S[C@@]1(CCCN)c1ccccc1 [filanesib]
# Outline: as §1
# zotarolimus = compound: CO[C@H]1C[C@@H]2CC[C@@H](C)[C@@](O)(O2)C(=O)C(=O)N2CCCC[C@H]2C(=O)O[C@H]([C@H](C)C[C@@H]2CC[C@H](n3cnnn3)[C@H](OC)C2)CC(=O)[C@H](C)/C=C(\C)[C@@H](O)[C@@H](OC)C(=O)[C@H](C)C[C@H](C)/C=C/C=C/C=C/1C [zotarolimus]
# Outline: as §1
# idasanutlin = compound: COc1cc(C(=O)O)ccc1NC(=O)[C@@H]1N[C@@H](CC(C)(C)C)[C@](C#N)(c2ccc(Cl)cc2F)[C@H]1c1cccc(Cl)c1F [idasanutlin]
# Outline: as §1
# alisertib = compound: COc1cc(Nc2ncc3c(n2)-c2ccc(Cl)cc2C(c2c(F)cccc2OC)=NC3)ccc1C(=O)O [alisertib]
# Outline: as §1
# [2] = compound: COc1cc2nc(-c3cc(F)ccc3O)nc(N[C@@H]3CNC[C@H]3C(C)(C)O)c2cc1OC
# Outline: as §1
# gefitinib = compound: COc1cc2ncnc(Nc3ccc(F)c(Cl)c3)c2cc1OCCCN1CCOCC1 [gefitinib]
# Outline: as §1
# [3] = compound: COc1cccc2cc(-c3nc([C@H]4CC[C@H](C(=O)O)CC4)n4ncnc(N)c34)[nH]c12
# Outline: as §1
# lapatinib = compound: CS(=O)(=O)CCNCc1ccc(-c2ccc3ncnc(Nc4ccc(OCc5cccc(F)c5)c(Cl)c4)c3c2)o1 [lapatinib]
# Outline: as §1
# pictilisib = compound: CS(=O)(=O)N1CCN(Cc2cc3nc(-c4cccc5[nH]ncc45)nc(N4CCOCC4)c3s2)CC1 [pictilisib]
# Outline: as §1
Target,log2 fold change [1],log2 fold change (filanesib),log2 fold change (zotarolimus),log2 fold change (idasanutlin),log2 fold change (alisertib),log2 fold change [2],log2 fold change (gefitinib),log2 fold change [3],log2 fold change (lapatinib),log2 fold change (pictilisib)
PPIC (UniProt P45877),inactive: -0.043,inactive: 0.082,inactive: -0.083,inactive: -0.111,inactive: 0.056,inactive: 0.058,inactive: -0.03,inactive: 0.072,inactive: 0.052,inactive: 0.092
PMM2 (UniProt O15305),inactive: -0.054,inactive: -0.014,inactive: -0.01,inactive: 0.011,inactive: 0.009,inactive: 0.071,inactive: 0.016,inactive: 0.034,inactive: -0.088,inactive: -0.113
POLR3E (UniProt Q9NVU0),inactive: 0.01,inactive: 0.053,inactive: 0.065,inactive: 0.003,inactive: 0.013,inactive: 0.064,inactive: 0.114,inactive: -0.051,inactive: -0.059,inactive: -0.039
PPM1B (UniProt O75688),inactive: -0.034,inactive: -0.057,inactive: -0.018,inactive: -0.042,inactive: 0.022,inactive: 0.051,inactive: 0.017,inactive: -0.002,inactive: 0.017,inactive: 0.062
POLE3 (UniProt Q9NRF9),inactive: 0.007,inactive: 0.021,inactive: 0.021,inactive: 0.003,inactive: -0.019,inactive: 0.016,inactive: 0,inactive: 0.003,inactive: -0.005,inactive: -0.02
PPCDC (UniProt Q96CD2),inactive: 0.117,inactive: -0.008,inactive: 0.024,inactive: -0.126,inactive: -0.042,inactive: -0.017,inactive: -0.034,inactive: 0.116,inactive: 0.027,inactive: 0.11
POLA1 (UniProt P09884),inactive: 0.053,inactive: -0.023,inactive: 0.008,inactive: 0.003,inactive: -0.053,inactive: 0.016,inactive: 0.015,inactive: -0.008,inactive: -0.005,inactive: 0.033
POLR3C (UniProt Q9BUI4),inactive: -0.011,inactive: -0.029,inactive: 0.018,inactive: -0.026,inactive: 0,inactive: -0.061,inactive: -0.006,inactive: 0.019,inactive: -0.013,inactive: 0.069
POMK (UniProt Q9H5K3),inactive: -0.025,inactive: -0.019,inactive: -0.101,inactive: -0.017,inactive: 0.077,inactive: -0.037,inactive: -0.02,inactive: 0.04,inactive: 0.067,inactive: 0.077
POMT1 (UniProt Q9Y6A1),inactive: -0.393,–,–,inactive: 0.124,inactive: 0.068,–,–,inactive: 0.133,–,–
PLP2 (UniProt Q04941),inactive: -0.057,inactive: 0.076,inactive: -0.033,inactive: 0.016,inactive: -0.188,inactive: -0.063,inactive: 0.147,inactive: 0.138,inactive: -0.019,inactive: -0.032
POMGNT2 (UniProt Q8NAT1),inactive: -0.095,inactive: 0.108,inactive: 0.152,inactive: 0.108,inactive: -0.251,inactive: 0.079,–,inactive: -0.06,inactive: -0.061,inactive: -0.105
PPIP5K2 (UniProt H0Y9S9),inactive: 0.178,inactive: -0.178,inactive: 0.035,–,inactive: -0.168,inactive: -0.184,inactive: 0.049,inactive: -0.099,inactive: 0.065,–
PLEKHO2 (UniProt Q8TD55),inactive: -0.07,–,inactive: -0.106,–,inactive: -0.087,inactive: 0.109,inactive: 0.022,inactive: 0.018,inactive: 0.069,inactive: 0.026
POLD4 (UniProt Q9HCU8),inactive: -0.094,–,inactive: 0.045,inactive: 0.016,inactive: -0.033,inactive: -0.01,inactive: -0.017,inactive: -0.05,inactive: 0.095,inactive: 0.169
POM121 (UniProt Q96HA1),inactive: -0.03,inactive: 0.055,inactive: -0.018,inactive: 0.146,–,inactive: -0.027,inactive: -0.002,–,inactive: -0.01,inactive: 0.003

Target,log2 fold change [1],log2 fold change (filanesib),log2 fold change (zotarolimus),log2 fold change (idasanutlin),log2 fold change (alisertib),log2 fold change [2],log2 fold change (gefitinib),log2 fold change [3],log2 fold change (lapatinib),log2 fold change (pictilisib)
PLTP (UniProt P55058),inactive: -0.18,inactive: 0.129,inactive: 0.022,–,inactive: -0.034,inactive: -0.424,inactive: -0.096,inactive: 0.037,inactive: 0.045,inactive: 0.089
POTEI (UniProt P0CG38),inactive: 0.033,inactive: 0.04,inactive: 0.025,inactive: -0.007,inactive: 0.037,inactive: -0.003,inactive: 0.015,inactive: 0.067,inactive: -0.006,inactive: 0.012
POLR2E (UniProt P19388),inactive: 0.095,–,inactive: -0.065,inactive: -0.061,inactive: -0.21,active: 0.291,inactive: 0.007,inactive: 0.029,inactive: -0.013,inactive: 0.063
POMP (UniProt Q9Y244),inactive: 0.175,inactive: 0.082,inactive: 0.012,inactive: 0.115,inactive: -0.153,inactive: -0.016,inactive: 0.076,inactive: -0.03,inactive: -0.022,inactive: 0.031
POLR1B isoform 3 (UniProt Q9H9Y6),inactive: -0.097,inactive: 0.085,inactive: 0.081,–,inactive: 0.155,–,inactive: 0.067,inactive: 0,–,inactive: -0.048
POGZ (UniProt Q7Z3K3),inactive: -0.066,inactive: -0.021,inactive: 0.008,inactive: 0.01,–,inactive: 0.095,–,–,inactive: -0.086,inactive: 0.082
POLR1D (UniProt P0DPB5),inactive: -0.197,inactive: 0.262,inactive: -0.053,inactive: 0.03,–,inactive: -0.456,–,–,inactive: 0.331,inactive: -0.026
PNKP (UniProt Q96T60),inactive: -0.185,inactive: 0.052,inactive: -0.067,inactive: -0.144,–,inactive: 0.421,–,–,inactive: -0.135,inactive: 0.273
POLR2I (UniProt P36954),inactive: -0.012,inactive: 0.041,inactive: -0.017,inactive: 0.029,inactive: 0.061,inactive: 0.076,inactive: -0.003,inactive: 0.062,inactive: -0.006,inactive: -0.041
POSTN (UniProt Q15063),inactive: 0.103,inactive: -0.064,inactive: -0.294,inactive: 0.166,inactive: 0,inactive: -0.015,inactive: -0.053,inactive: 0.196,inactive: -0.058,inactive: -0.052
PLG (UniProt P00747),inactive: -0.251,inactive: 0.24,inactive: -0.053,inactive: 0.31,–,inactive: 0.016,inactive: -0.041,–,inactive: -0.062,inactive: -0.073
POMT2 (UniProt Q9UKY4),inactive: -0.023,–,inactive: -0.07,inactive: -0.072,–,inactive: -0.208,–,–,inactive: 0.2,–
PLXNA3 (UniProt P51805),inactive: 0.134,inactive: 0.017,–,inactive: -0.002,inactive: -0.057,–,–,inactive: 0.088,–,inactive: 0.193
POFUT1 (UniProt Q9H488),inactive: -0.03,inactive: 0.012,inactive: 0.141,inactive: 0.09,inactive: -0.071,inactive: -0.018,inactive: 0.012,inactive: 0.064,inactive: -0.04,inactive: 0.038
POLDIP3 (UniProt Q9BY77),inactive: 0.006,inactive: 0.189,inactive: 0.012,inactive: 0.076,inactive: -0.06,inactive: -0.022,inactive: -0.003,inactive: 0.029,inactive: 0.039,inactive: -0.05

# Exported as tab-separated lines: entries from further up
Target	log2 fold change [1]	log2 fold change (filanesib)	log2 fold change (zotarolimus)	log2 fold change (idasanutlin)	log2 fold change (alisertib)	log2 fold change [2]	log2 fold change (gefitinib)	log2 fold change [3]	log2 fold change (lapatinib)	log2 fold change (pictilisib)
POLR3C (UniProt Q9BUI4)	inactive: -0.011	inactive: -0.029	inactive: 0.018	inactive: -0.026	inactive: 0	inactive: -0.061	inactive: -0.006	inactive: 0.019	inactive: -0.013	inactive: 0.069
POMK (UniProt Q9H5K3)	inactive: -0.025	inactive: -0.019	inactive: -0.101	inactive: -0.017	inactive: 0.077	inactive: -0.037	inactive: -0.02	inactive: 0.04	inactive: 0.067	inactive: 0.077
